The target of experiment [1] is Legionella pneumophila NTPDase1 (LpNTPDase1), His6-tagged (Legionella pneumophila) (UniProt Q5ZUA2). Briefly: far-Western, overlay or dot blot; both purified.
Experiment [2] addresses T1, AtAPY1-δTM (soluble form of AtAPY1 without the transmembrane domain, C-terminal His6-tag) (Arabidopsis thaliana) (UniProt Q9SQG2).
T1 sequence: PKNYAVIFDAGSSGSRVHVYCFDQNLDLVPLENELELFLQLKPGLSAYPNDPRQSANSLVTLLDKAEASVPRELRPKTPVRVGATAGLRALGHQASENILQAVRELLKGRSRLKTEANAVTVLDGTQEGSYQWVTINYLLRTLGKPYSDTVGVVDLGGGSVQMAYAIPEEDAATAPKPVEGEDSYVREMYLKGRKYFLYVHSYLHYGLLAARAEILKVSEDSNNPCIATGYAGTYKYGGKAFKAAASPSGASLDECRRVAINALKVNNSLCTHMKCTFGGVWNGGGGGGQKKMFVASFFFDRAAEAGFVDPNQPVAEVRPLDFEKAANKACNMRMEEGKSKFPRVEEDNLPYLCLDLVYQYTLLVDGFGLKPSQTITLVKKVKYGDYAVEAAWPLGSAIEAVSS
As to the kind of experiment: far-Western, overlay or dot blot; CaM overlay as with calcium, but Ca2+ replaced with 5 mM EGTA in all pertinent solutions; exposure 60 s against 1 s; both purified.

Results are given in words; binding and its absence hold for the method and conditions named. For some assays here: Where a sequence is shown, tags or fusion partners need not be part of it.

With “calmodulin 2 from A. thaliana (AtCaM2), N-terminally His6-tagged, biotinylated (from UniProt P0DH97 1-149)”, the binding result in experiment [1] was “no binding (tested: 200 ng/mL AtCaM2)”; in experiment [2] it was “no binding (condition: Ca2+ replaced with 5 mM EGTA)”.

The values above are taken from PMC4379058, “The Biochemical Properties of the Arabidopsis Ecto-Nucleoside Triphosphate Diphosphohydrolase AtAPY1 Contradict a Direct Role in Purinergic Signaling” (PLoS ONE, 2015).
